The text below walks through data of article PMC8144298.

The chains behind the UniProt entries cited, without tags or fusion partners. Where a name states a change or a piece, a line headed by the entry shows the natural chain unless it says otherwise. Residues count along the entry.
UniProt P69913: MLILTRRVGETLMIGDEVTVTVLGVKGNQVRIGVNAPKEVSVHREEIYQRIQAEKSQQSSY
UniProt P0A6X3, 2-102: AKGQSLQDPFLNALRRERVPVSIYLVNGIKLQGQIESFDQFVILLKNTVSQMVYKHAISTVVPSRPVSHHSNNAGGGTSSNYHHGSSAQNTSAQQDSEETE

Data set [1] has as its target CsrA-3xFLAG (Escherichia coli) (UniProt P69913). The data set is described as follows: competition with a labelled probe. The conditions noted are these: competitor conc. that fully displaces labeled RrBshort (120 pM) from 200 nM CsrA; CsrA EMSA: 100 mM KCl, 10 mM MgCl2, 2 mM DTT, 7.5% glycerol, 2 ng total yeast RNA, 120 pM RNA, 10 min 37 C, 8% native PAGE in 1x TBE (pH not stated); recombinant protein; probe letters rebuilt from the primers and the genome; part of a longer molecule.

A further data set concerns the target Hfq (UniProt P0A6X3). Kind of data set: EMSA. To be noted: higher affinity than RrBshort, 2 pmol random 75-nt RNA present; CsrA EMSA: 100 mM KCl, 10 mM MgCl2, 2 mM DTT, 7.5% glycerol, 2 ng total yeast RNA, 120 pM RNA, 10 min 37 C, 8% native PAGE in 1x TBE (pH not stated); recombinant protein; label: 5' 32P; probe letters rebuilt from the primers and the genome; part of a longer molecule. (In general: A gel shift assay detects complexes by their altered migration in electrophoresis.)

For at least one entry, the source does not settle the construct or the ends of the probe. For some assays here: The direction of at least one scale is not stated here.

“GACAGGGAGUCAGACAACGAAGUGAACAUCAGGAUGAUGACACUUCUGCAGGACACACCAGGAUGGUGUUUCAGGGAAAGGCUUCUGGAUGAAGCGAAGAGGAUGACGCAGGACGCGUUAAAGGACACCUCCAGGAUGGAGAAUGAGAACCGGUCAGGAUGAUUCGGUGGGUCAGGAAGGCCAGGGACACUUCAGGAUGAAGUAUCACAUCGGGGUGGUGUGAGCAGGAAGCAAUAGUUCAGGAUGAACGAUUGGCCGCAAGGCCAGAGGAAAAGUUGUCAAGGAUGAGCAGGGAGCAACAAAAGUAGCUGGAAUGCUGCGAAACGAACCGGGAGCGCUGUGAAUACAGUGCUCCCUUUUUUUAUU [CsrB]”: the binding signal in data set [1] stood at 3.13 nM.
In the case of “AACGGAGCGGCACCUCUUUUAACCCUUGAAGUCACUGCCCGUUUCGAGAGUUUCUCAACUCGAAUAACUAAAGCCAACGUGAACUUUUGCGGAUCUCCAGGAUCCGCU [OxyS]”, the binding result with Hfq is “binds”.
